Data as given in PubChem BioAssay AID720505 (Drosophila RNAi Screening Center, 2013)

Assay: 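Genes needed for store-operated calcium entry in fly cells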 (primary screen)
System: Drosophila S2R+ cells
Reagent: long dsRNA against Drosophila genes
Conditions: thapsigargin (2 µM) in calcium-free buffer to empty internal stores, then 2 mM calcium added back
Measurement: 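Stores emptied by 2 µM thapsigargin without calcium, then 2 mM calcium re-added; fluo-4 fluorescence followed by FLIPR in 384-well plates, per-well averaged endpoint, raw; two screen passes, some wells retested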
Direction: calcium signal and retest calcium signal: higher = more calcium entry after store depletion
Active means: 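Knock-downs counted as hits when calcium entry dropped relative to STIM1 positive and Rho1 negative controls present on each plate; roughly 1500 genes called, with reductions of differing size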
Meaning of the calls: active = called as lowering calcium entry; inactive = not called
The screen tested about 20,000 reagents; below is an unselected part of those that have a named target and a result. Over the whole deposit, about 2,100 (10%) got an active call. 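Raw plate signals without normalisation; calls rest on control-based scores that were not deposited; replicate 2 separates called from uncalled poorly.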 Names joined by + are all predicted targets of the reagent. Not stated in the record: the amount of reagent, the time to read-out.

gene knocked down | amplicon | calcium signal, replicate 1 | calcium signal, replicate 2 | retest calcium signal, replicate 1 | retest calcium signal, replicate 2 | outcome
CG32409 | DRSC08780 | 8038 | 153 | – | – | active
CSN7 | DRSC06807 | 165 | 89.8 | – | – | inactive
CSN7 | DRSC06808 | 82.6 | 130 | – | – | inactive
CG13775 | DRSC02279 | 170 | 104 | – | – | inactive
raw | DRSC03599 | 117 | 99.2 | – | – | inactive
raw | DRSC03600 | 97.1 | 96.3 | – | – | inactive
CG42232 | DRSC15018 | 137 | 219 | – | – | inactive
CG42232 | DRSC15019 | 174 | 242 | – | – | inactive
ATPCL | DRSC05913 | 115 | 112 | – | – | inactive
Cht10 | DRSC03766 | 239 | 127 | – | – | inactive
Cht10 | DRSC03767 | 69 | 165 | – | – | active
Cht10 | DRSC03768 | 197 | 83.8 | – | – | inactive
Spt5 | DRSC07556 | 93.2 | 116 | – | – | active
boss | DRSC16916 | 238 | 148 | – | – | inactive
CG17300 | DRSC10260 | 85.7 | 114 | – | – | inactive
CG14718 | DRSC14941 | 104 | 156 | – | – | inactive
CG14535 | DRSC02393 | 88.1 | 150 | – | – | inactive
Ulp1 | DRSC19339 | 177 | 131 | – | – | inactive
CG7786 | DRSC07045 | 130 | 108 | – | – | inactive
CG31957 | DRSC00207 | 102 | 104 | – | – | inactive
CG11670 | DRSC14342 | 101 | 83.9 | – | – | inactive
CG17237 | DRSC00491 | 188 | 138 | – | – | inactive
Vps13 | DRSC06817 | 149 | 131 | – | – | inactive
mRpL37 | DRSC16062 | 116 | 98.8 | – | – | inactive
Su(var)205 | DRSC03446 | 117 | 229 | – | – | inactive
CG14369 | DRSC14831 | 142 | 176 | – | – | inactive
Jhe | DRSC07174 | 122 | 141 | – | – | inactive
CG6000 | DRSC15938 | 216 | 196 | – | – | inactive
Cpn | DRSC16613 | 149 | 109 | – | – | inactive
Trim9 | DRSC02242 | 197 | 156 | – | – | inactive
Naa20A | DRSC19579 | 85.2 | 93.3 | – | – | inactive
CG32695 | DRSC17975 | 110 | 89.4 | – | – | inactive
w-cup | DRSC03048 | 160 | 162 | – | – | inactive
Best2 | DRSC09712 | 104 | 100 | – | – | inactive
Vm26Aa | DRSC03472 | 158 | 110 | – | – | inactive
CG2839 | DRSC00544 | 95.9 | 138 | – | – | inactive
PLCXD | DRSC02427 | 95 | 88 | 90.4 | 116 | inactive
Gr43a | DRSC06658 | 132 | 174 | – | – | inactive
CG5043 | DRSC02805 | 79.7 | 143 | – | – | active
CG12609 | DRSC19473 | 61.9 | 89.8 | – | – | active
CG13970 | DRSC02311 | 95.1 | 127 | – | – | inactive
rb | DRSC18826 | 193 | 110 | – | – | inactive
CG5810 | DRSC15880 | 148 | 165 | – | – | inactive
CG5810 | DRSC21921 | 103 | 206 | – | – | inactive
toe | DRSC09783 | 104 | 82.2 | – | – | inactive
CG34309 | DRSC14838 | 121 | 196 | – | – | inactive
HmgZ | DRSC03888 | 76.6 | 7880 | – | – | inactive
HmgZ | DRSC04620 | 176 | 80.8 | 102 | 78.3 | inactive
CG30043 | DRSC06285 | 155 | 217 | – | – | inactive
FMRFa | DRSC07428 | 95.2 | 88.2 | – | – | inactive
Or74a | DRSC11245 | 36.4 | 124 | – | – | active
CG7794 | DRSC16313 | 154 | 119 | – | – | inactive
Or49b | DRSC07494 | 92.8 | 192 | – | – | inactive
Reepl1 | DRSC19418 | 90.5 | 121 | – | – | inactive
CG9297 | DRSC16469 | 67.9 | 145 | – | – | active
mei-41 | DRSC20350 | 97.6 | 115 | – | – | inactive
CG3348 | DRSC15480 | 151 | 121 | – | – | inactive
CG12935 + Nop10 | DRSC07025 | 157 | 156 | – | – | inactive
zyd | DRSC20716 | 215 | 114 | – | – | inactive
CG17169 | DRSC20905 | 69.4 | 140 | – | – | active
inv | DRSC07633 | 105 | 208 | – | – | inactive
CG6574 | DRSC16070 | 178 | 89.5 | – | – | inactive
Dbp21E2 | DRSC00616 | 153 | 233 | – | – | inactive
brv3 | DRSC18657 | 91.6 | 136 | – | – | inactive
WASp | DRSC15032 | 166 | 148 | – | – | inactive
CG4462 | DRSC15583 | 206 | 296 | – | – | inactive
CG42812 | DRSC15368 | 191 | 129 | – | – | inactive
CG4627 | DRSC06873 | 154 | 112 | – | – | inactive
s-cup | DRSC06277 | 139 | 227 | – | – | inactive
s-cup | DRSC06278 | 128 | 199 | – | – | inactive
Ir40a | DRSC03732 | 129 | 97.4 | – | – | inactive
Ir40a | DRSC03733 | 92.5 | 129 | – | – | inactive
CG15128 | DRSC06550 | 209 | 173 | – | – | inactive
128up | DRSC05027 | 165 | 148 | – | – | inactive
CG8860 | DRSC07291 | 117 | 107 | – | – | inactive
CG17207 | DRSC15198 | 179 | 127 | – | – | inactive
CG3213 | DRSC00576 | 148 | 73 | 84.2 | 90.4 | inactive
Saf-B | DRSC16167 | 167 | 252 | – | – | inactive
Atg13 | DRSC16228 | 120 | 158 | – | – | inactive
Send2 | DRSC01906 | 74.4 | 116 | – | – | active
CG10383 | DRSC02050 | 102 | 93.1 | – | – | inactive
bi | DRSC18742 | 241 | 128 | – | – | inactive
CG18731 | DRSC15377 | 216 | 190 | – | – | inactive

Reformatted: entries from further up
gene knocked down	amplicon	calcium signal, replicate 1	calcium signal, replicate 2	retest calcium signal, replicate 1	retest calcium signal, replicate 2	outcome
CG13775	DRSC02279	170	104			inactive
raw	DRSC03599	117	99.2			inactive
raw	DRSC03600	97.1	96.3			inactive
CG42232	DRSC15018	137	219			inactive
CG42232	DRSC15019	174	242			inactive
ATPCL	DRSC05913	115	112			inactive
Cht10	DRSC03766	239	127			inactive
Cht10	DRSC03767	69	165			active
Cht10	DRSC03768	197	83.8			inactive
Spt5	DRSC07556	93.2	116			active
